Data on 42 sequences can be found in publication PMC7819943, “Rice protein-binding microarrays: a tool to detect cis-acting elements near promoter regions in rice”.

The other results are listed elsewhere or left out.

The test deals with T1, OsSMF1 (Oryza sativa, UniProt Q6ZLB0 1-436).
T1 sequence: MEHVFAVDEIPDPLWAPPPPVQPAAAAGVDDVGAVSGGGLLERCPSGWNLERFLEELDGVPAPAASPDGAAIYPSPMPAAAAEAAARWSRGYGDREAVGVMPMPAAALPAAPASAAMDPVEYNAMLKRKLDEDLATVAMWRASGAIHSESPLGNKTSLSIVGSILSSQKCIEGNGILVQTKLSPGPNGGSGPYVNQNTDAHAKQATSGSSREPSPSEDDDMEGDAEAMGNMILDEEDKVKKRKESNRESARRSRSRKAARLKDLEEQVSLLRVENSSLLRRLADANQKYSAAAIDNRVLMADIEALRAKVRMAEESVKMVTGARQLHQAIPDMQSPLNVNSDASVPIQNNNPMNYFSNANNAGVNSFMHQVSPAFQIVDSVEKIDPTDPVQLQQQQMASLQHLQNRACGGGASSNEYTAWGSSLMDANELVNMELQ
Kind of test: protein-binding microarray (RPBM); PBS, 2% BSA, 51.3 ng/ul salmon testes DNA, 50 uM zinc acetate, 200 nM TF, 25 C, 1 h; high values mean tight binding. To be noted: protein: recombinant; tags: N-terminal polyhistidine and DsRed monomer fusion (pET32a); chain copies: 2; label: CyDye5-dUTP incorporated in the synthesized complementary strand; 3' TTTTT single-stranded linker to array surface; dsDNA, one strand shown. The gist of the method:
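The binding signal for each feature is its fluorescence intensity in arbitrary units. An Axon 4000B scanner was used to read a custom Agilent array that had been made double-stranded with Cy5-dUTP primer extension, blocked with 2% BSA, incubated at 25 °C for 1 h with 200 nM protein in PBS, 2% BSA, salmon testes DNA and 50 µM zinc acetate, and washed. The protein was an N-terminal polyhistidine–DsRed transcription factor fusion from E. coli BL21-CodonPlus, purified on Ni–NTA.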
As for “TAATCTCCGACCTGGTCTCTAGTGATGTGTGTGCTTGTGTCGGAGTCACCTAGTGCAG”, the binding signal is 4340 fluorescence intensity (a.u.).

Consider “TCGAGGATATAGGGTCACTCATGTTGAGTATTATGTGTTTCGGAGTCACCTAGTGCAG”, for which the binding signal was 3800 fluorescence intensity (a.u.).

Take “TTGTTGGCTGAAGTTCAGTGACTAATGATGGAATTCGTTGCGGAGTCACCTAGTGCAG”: the binding signal is 4500 fluorescence intensity (a.u.).

On to “TGTAAACCATAAAACTTCAGTTACATCATTTTGCCTACTACGGAGTCACCTAGTGCAG”, for which the binding signal was 3150 fluorescence intensity (a.u.).

As for “CCCACCGTCCCCGCGCGCCACGTCAGATCACCGCGGAGGTCGGAGTCACCTAGTGCAG”, the binding signal is 19100 fluorescence intensity (a.u.).

Turning to “CTTCGTGACTCATCCAGCGCCTCCCCTGTGCCGCACCGGCCGGAGTCACCTAGTGCAG”, the binding signal was 10600 fluorescence intensity (a.u.).

For “ATCAAGGGTTGCTGCGTCGGTCCGAAGAAGAGAGTCGTCACGGAGTCACCTAGTGCAG”, the binding signal is 3230 fluorescence intensity (a.u.).

Regarding “ATCATCTCCGCTCCCACCCAAGATCCTCTGACGTCTGGGTCGGAGTCACCTAGTGCAG”, the binding signal was 3240 fluorescence intensity (a.u.).

For “CTATCCGTCCAAATTAGGCTATCTCTAAAGATTAACTAACCGGAGTCACCTAGTGCAG”, the binding signal was 41000 fluorescence intensity (a.u.).

Regarding “GGGCTCCCAAACCGGGTCCCTGTCGGGCTCGCTCCGAACCCGGAGTCACCTAGTGCAG”, the binding signal is 3170 fluorescence intensity (a.u.).

As for “TTTTAGTACAGGTCATACCTAAATCGTTACAAATTCAGCACGGAGTCACCTAGTGCAG”, the binding signal is 4700 fluorescence intensity (a.u.).

With “AGAGGAGGGATGAGTTGGACTGACATGTGGTGCTCAGGTGCGGAGTCACCTAGTGCAG”, the binding signal was 3980 fluorescence intensity (a.u.).

Consider “ATGTTACAACTGGACTTCATTCTCCAGTAAAATCGTATGTCGGAGTCACCTAGTGCAG”, for which the binding signal was 19600 fluorescence intensity (a.u.).

For “TCCGCGCGGGCCCACTGTCCAGTGACACAGTGAACACAATCGGAGTCACCTAGTGCAG”, the binding signal is 3620 fluorescence intensity (a.u.).

As for “AAATGAATACAGTCTATACGTGTACTCCCTCCGTTCCATACGGAGTCACCTAGTGCAG”, the binding signal is 5240 fluorescence intensity (a.u.).

With “CTACTAGCAGCCTACCAGCATAACTAGTGGAGCAGTAGACCGGAGTCACCTAGTGCAG”, the binding signal was 5620 fluorescence intensity (a.u.).

In the case of “TTCTTTGTTGTTGCTGACTAGTTGCATACGTGGGCAATGACGGAGTCACCTAGTGCAG”, the binding signal was 17200 fluorescence intensity (a.u.).

Consider “ACCTAGAAACTAAGGCTGTGTTTAGTTCAGCGTAAAGTTTCGGAGTCACCTAGTGCAG”, for which the binding signal is 3570 fluorescence intensity (a.u.).

For the sequence “GTCTCCGATGCCCCGATGCCGCCGCGTCGCTGGCCTGATTCGGAGTCACCTAGTGCAG”, the binding signal was 3390 fluorescence intensity (a.u.).

As to “AGTTTCCGAGAGCGAGCGAGAGAGAGAGAGAGAGAGAGAGCGGAGTCACCTAGTGCAG”, the binding signal was 3220 fluorescence intensity (a.u.).

As to “CATCGTGCTCTTCTCATTGCCTCTGCTTCTCGTGTTCTTGCGGAGTCACCTAGTGCAG”, the binding signal is 3420 fluorescence intensity (a.u.).

Consider “GGAAGCGGTTGATTGAATGAGGGATGGCGTGGATGAAAGCCGGAGTCACCTAGTGCAG”, for which the binding signal is 4540 fluorescence intensity (a.u.).

Turning to “CCGCTCTCCTACTGCTCGGCCAACCAGTCATGCACACATACGGAGTCACCTAGTGCAG”, the binding signal was 3500 fluorescence intensity (a.u.).

For “TTTTATACTACTACCAGCTGATGATGATTCAGCAGCTCACCGGAGTCACCTAGTGCAG”, the binding signal was 6140 fluorescence intensity (a.u.).

Take “TCCCATGGCTCGCGTTCGGCCACGTGCTCCCTTACCTAGACGGAGTCACCTAGTGCAG”: the binding signal is 3870 fluorescence intensity (a.u.).

As to “CTCCATATGCTATGACATGGATTAATTAATGGTTCGTGCGCGGAGTCACCTAGTGCAG”, the binding signal was 5450 fluorescence intensity (a.u.).

As to “GATGTGCTCCACCACCGGTGAGGTCACGGCCGCCGCCTCCCGGAGTCACCTAGTGCAG”, the binding signal was 3640 fluorescence intensity (a.u.).

“CAAATGGTACAATTCAATTTATGTTGTTAGGCTTTACGTGCGGAGTCACCTAGTGCAG”: the binding signal is 3690 fluorescence intensity (a.u.).

Regarding “CGACGGGGCCATGTGGTTTGGTTTTGTTTAGCATCCCGTCCGGAGTCACCTAGTGCAG”, the binding signal was 3270 fluorescence intensity (a.u.).

“AGAGGCATGGGAGTCATGTTCAGGGTGATGGGAGATGGAGCGGAGTCACCTAGTGCAG”: the binding signal was 3260 fluorescence intensity (a.u.).

For the sequence “AGCAATGTCTGTCCCATTCCATCAAGTCACCAGCTACATGCGGAGTCACCTAGTGCAG”, the binding signal was 3470 fluorescence intensity (a.u.).

Regarding “TCTAAGTCTAGTGGTTTGGTTTCTTCCACGACTTCTTTGGCGGAGTCACCTAGTGCAG”, the binding signal was 3940 fluorescence intensity (a.u.).

As for “AGGGATTATGTGTGTGTAAGATATTTGTGACTAGTTTATTCGGAGTCACCTAGTGCAG”, the binding signal was 3630 fluorescence intensity (a.u.).

For “GAGATGAATCTCAGCCGCGTCATCCACCTCATTGCTCTTACGGAGTCACCTAGTGCAG”, the binding signal is 9370 fluorescence intensity (a.u.).

Consider “GTCCCACGCTCTCTCGCTCGCTCGCTGACGTGCGGGACCCCGGAGTCACCTAGTGCAG”, for which the binding signal is 7440 fluorescence intensity (a.u.).

On to “TTTCGACGATCCAAACGTCATCGCTACATCGTCTGAAACCCGGAGTCACCTAGTGCAG”, for which the binding signal was 4340 fluorescence intensity (a.u.).

On to “CCACGCCGCCGCCGCCGCCGCCGTCTCGTCAGCAAGCGCTCGGAGTCACCTAGTGCAG”, for which the binding signal is 5000 fluorescence intensity (a.u.).

Turning to “CCCGTCGATGACAGGGTATTCCAGGAGCTCCAAGCATGAACGGAGTCACCTAGTGCAG”, the binding signal is 29400 fluorescence intensity (a.u.).

Consider “TACCTGCCATGGTGAAAGATTTGTTGACTCAGTTTGATAGCGGAGTCACCTAGTGCAG”, for which the binding signal was 3330 fluorescence intensity (a.u.).

On to “GTACATATAGCTACCCGAACCACCGCCGCCGCCGCCGCCACGGAGTCACCTAGTGCAG”, for which the binding signal was 3460 fluorescence intensity (a.u.).

Turning to “AGAGACTGATTGATTGGTGGAGAAGCTGTGAGGTGGGGTTCGGAGTCACCTAGTGCAG”, the binding signal is 4770 fluorescence intensity (a.u.).

Take “GGCGGCGGCGGCGGCGGAGGAGGCGGCGGGTCTAGGGTTGCGGAGTCACCTAGTGCAG”: the binding signal is 3680 fluorescence intensity (a.u.).
